According to the supplement of paper PMC10331698:
± gives the standard deviation of the averaged measurements. Most entries show no effect beyond the scatter of the controls.

Tests used:
Assay in all cases: level (log10 ratio to DMSO vehicle control); higher = higher biomarker level / cell amount than vehicle control
[1] = compound: C=C(C)C(=O)OCCC(F)(F)C(F)(F)C(F)(F)C(F)(F)C(F)(C(F)(F)F)C(F)(F)F [(Perfluoro-5-methylhexyl)ethyl 2-methylprop-2-enoate]; conditions: in DMSO
Method: (§1)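 BioMAP Diversity Plus panel of 12 human primary cell co-culture systems (3C, 4H, LPS, SAg, BT, BF4T, BE3C, CASM3C, HDF3CGF, KF3CT, MyoF, Mphg). Compounds were added 1 h before stimulation and left for 24 h (MyoF 48 h; BT 72 h for soluble read-outs or 6 d for IgG). Biomarkers were read by ELISA, cytotoxicity by SRB, PBMC viability and proliferation by Alamar Blue. Each well value was divided by the mean of 8 DMSO control wells on the same plate and log10 transformed; duplicate blinded samples were tested at 4 concentrations.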

[2] = compound: C=C(C)C(=O)OCCC(F)(F)C(F)(F)C(F)(F)C(F)(F)C(F)(F)C(F)(F)C(F)(F)C(F)(F)F [8:2 Fluorotelomer methacrylate]; conditions: in DMSO
Method: as §1

[3] = compound: COC(=O)CCC(F)(F)C(F)(F)C(F)(F)C(F)(F)F [Methyl 2H,2H,3H,3H-perfluoroheptanoate]; conditions: 2200 nM; in DMSO
Method: as §1

[4] = compound: FC(F)(F)C(F)(F)C(F)(F)C(F)(F)C(F)(F)CCI [1-Iodo-1H,1H,2H,2H-perfluoroheptane]; conditions: 2200 nM; in DMSO
Method: as §1

[5] = compound: NC(=O)C(F)(F)C(F)(F)C(F)(F)C(F)(F)C(N)=O [Octafluoroadipamide]; conditions: 2200 nM; in DMSO
Method: as §1

[6] = compound: NC(=O)C(F)(F)C(F)(F)C(F)(F)C(F)(F)F [Nonafluoropentanamide]; conditions: 2200 nM; in DMSO
Method: as §1

[7] = compound: NS(=O)(=O)C(F)(F)C(F)(F)C(F)(F)C(F)(F)C(F)(F)C(F)(F)F [Perfluorohexanesulfonamide]; conditions: 2200 nM; in DMSO
Method: as §1

[8] = compound: O=C(O)C(F)(F)C(F)(F)C(=O)O [Tetrafluorosuccinic acid]; conditions: 2200 nM; in DMSO
Method: as §1

[9] = compound: O=C(O)C(F)(F)C(F)(F)C(F)(F)C(F)(F)C(F)(F)C(F)(F)C(F)(F)C(F)(F)Cl [9-Chloro-perfluorononanoic acid]; conditions: in DMSO
Method: as §1

[10] = compound: O=C(O)CCC(F)(F)C(F)(F)C(F)(F)C(F)(F)C(F)(F)F [2H,2H,3H,3H-Perfluorooctanoic acid]; conditions: 2200 nM; in DMSO
Method: as §1

[11] = compound: O=S(=O)(O)C(F)(F)C(F)(F)OC(F)(F)C(F)(F)F [Perfluoro(2-ethoxyethane)sulfonic acid]; conditions: 2200 nM; in DMSO
Method: as §1

[12] = compound: O=S(=O)(O)CCC(F)(F)C(F)(F)C(F)(F)C(F)(F)C(F)(F)C(F)(F)F [6:2 Fluorotelomer sulfonic acid]; conditions: in DMSO
Method: as §1

[13] = compound: OC(C(F)(F)F)(C(F)(F)F)C(O)(C(F)(F)F)C(F)(F)F [Perfluoropinacol]; conditions: in DMSO
Method: as §1

[14] = compound: OCCC(F)(F)C(F)(F)C(F)(F)C(F)(F)F [4:2 Fluorotelomer alcohol]; conditions: 2200 nM; in DMSO
Method: as §1

Row | Test System | level (log10) ([1]; 740 nM) | level (log10) ([1]; 2200 nM) | level (log10) ([1]; 6700 nM) | level (log10) ([1]; 20000 nM) | level (log10) ([2]; 740 nM) | level (log10) ([2]; 2200 nM) | level (log10) [3] | level (log10) [4] | level (log10) [5] | level (log10) [6] | level (log10) [7] | level (log10) [8] | level (log10) ([9]; 2200 nM) | level (log10) ([9]; 6700 nM) | level (log10) ([9]; 20000 nM) | level (log10) [10] | level (log10) [11] | level (log10) ([12]; 2200 nM) | level (log10) ([12]; 6700 nM) | level (log10) ([12]; 20000 nM) | level (log10) ([12]; 60000 nM) | level (log10) ([13]; 2200 nM) | level (log10) ([13]; 6700 nM) | level (log10) ([13]; 20000 nM) | level (log10) [14]
1 | SAg:CD40 | 0 ± 0.0085 | 0.0065 ± 0.037 | 0 ± 0.0071 | -0.0275 ± 0.028 | -0.012 ± 0.042 | -0.018 ± 0.014 | -0.0315 ± 0.021 | -0.024 ± 0.038 | -0.0055 ± 0.0064 | -0.0125 ± 0.023 | 0.009 ± 0.027 | -0.015 ± 0.016 | -0.006 ± 0.018 | -0.013 ± 0.033 | -0.024 ± 0.031 | -0.031 ± 0.031 | 0.009 ± 0.0099 | -0.013 ± 0.041 | -0.0275 ± 0.046 | -0.0285 ± 0.064 | -0.053 ± 0.035 | -0.0095 ± 0.0092 | -0.021 ± 0.016 | -0.146 ± 0.013 | -0.0185 ± 0.016
2 | CASM3C:CD141/Thrombomodulin | -0.0165 ± 0.046 | -0.0525 ± 0.066 | -0.0185 ± 0.069 | 0.0165 ± 0.098 | 0.015 ± 0.0071 | -0.0265 ± 0.032 | -0.036 ± 0.0071 | 0.012 ± 0.025 | -0.0045 ± 0.036 | 0.0125 ± 0.015 | -0.0465 ± 0.032 | -0.0375 ± 0.0092 | 0.012 ± 0.017 | -0.0175 ± 0.022 | -0.0225 ± 0.025 | -0.006 ± 0.072 | 0.0205 ± 0.015 | 0.0155 ± 0.067 | -0.015 ± 0.037 | -0.0175 ± 0.063 | -0.033 ± 0.021 | 0.012 ± 0.052 | -0.0085 ± 0.021 | 0.0575 ± 0.0035 | 0.0295 ± 0.039
3 | MyoF:Decorin | -0.0155 ± 0.011 | -0.0095 ± 0.028 | -0.006 ± 0.037 | 0.008 ± 0.052 | -0.005 ± 0.02 | -0.015 ± 0.0057 | 0.006 ± 0.025 | -0.038 ± 0.042 | 0.001 ± 0.027 | 0.008 ± 0.025 | -0.03 ± 0.16 | 0.013 ± 0.02 | -0.016 ± 0.028 | 0.012 ± 0.0014 | -0.0045 ± 0.05 | -0.005 ± 0.0042 | -0.006 ± 0.0085 | -0.0025 ± 0.005 | 0.0105 ± 0.0035 | 0.0015 ± 0.00071 | 0.0435 ± 0.0021 | -0.0265 ± 0.028 | -0.041 ± 0.024 | -0.034 ± 0.025 | 0.018 ± 0.028
4 | BF4T:tPA | 0 ± 0.0085 | 0.0015 ± 0.0035 | -0.002 ± 0.0057 | -0.037 ± 0.031 | 0.0195 ± 0.046 | -0.0305 ± 0.019 | 0.0075 ± 0.042 | 0.0045 ± 0.026 | -0.0275 ± 0.0021 | -0.0305 ± 0.011 | -0.006 ± 0.03 | 0.01 ± 0.014 | -0.031 ± 0.052 | -0.075 ± 0.0099 | -0.098 ± 0.0099 | -0.0015 ± 0.036 | 0.0355 ± 0.0021 | 0.0035 ± 0.06 | -0.008 ± 0.027 | -0.036 ± 0.028 | -0.0355 ± 0.036 | -0.013 ± 0.055 | -0.028 ± 0.011 | 0.032 ± 0.014 | 0.004 ± 0.016
5 | BF4T:CD90 | 0.004 ± 0.021 | 0.0065 ± 0.00071 | 0.011 | 0 ± 0.0085 | 0.001 ± 0.0028 | -0.016 ± 0.0014 | -0.0085 ± 0.016 | 0.0015 ± 0.011 | 0.0005 ± 0.0078 | -0.0005 ± 0.0021 | 0.006 ± 0.014 | -0.0085 ± 0.0092 | -0.032 ± 0.024 | -0.034 ± 0.013 | -0.0285 ± 0.005 | -0.0105 ± 0.0064 | -0.011 ± 0.0099 | -0.009 ± 0.013 | -0.029 ± 0.017 | -0.028 ± 0.0085 | -0.031 ± 0.0042 | -0.0015 ± 0.0092 | -0.015 ± 0.017 | -0.024 ± 0.0071 | 0.005 ± 0.0099
